According to PubChem BioAssay AID1347076 (National Center for Advancing Translational Sciences (NCATS), 2019):
The campaign covered roughly 400,000 compounds. About 13,000 (3.2%) were called active. The inconclusive results got no clear call from the source; some entries with a clear call stand among them for comparison. Calls come from the whole dose curve; as a rule, active = well fitted cell-killing curve with a large enough effect; inconclusive = small, poorly fitted or top-dose-only effect, or effect the other way; inactive = flat fitted curve, though single readings scatter. Potencies beside an inconclusive call are fits to weak or partial responses and may not hold up.

assay: qHTS assay for MDR1-selective chemotherapeutics: Primary screen using the drug-selected MDR subline cells KB-V1; settings: KB-V1 MDR cells viability, CellTiter-Glo, 72 h; activity change, negative = cytotoxicity: at 46.1 µM (top of the series); note: nearly all actives have a fitted effect of over 60% in size
Method in brief: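 KB-V1 MDR subline cells in DMEM (phenol-red free, 10% FBS) exposed to compounds in qHTS concentration series for 72 h at 37 degrees C. Viability read by CellTiter-Glo luminescence; concentration-effect curves fitted after normalization and correction.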
% is set by controls: 0 for no effect and ±100 for the full control effect; potency is the fitted concentration of half-maximal effect.

SMILES	Potency	activity change, negative = cytotoxicity
C=CCOC(=O)N1CCN(c2cccc(C(F)(F)F)c2)CC1	inconclusive: 23.1 µM [cytotoxic, partial curve, poor fit]	
CCC(=O)NNc1nc2c(F)cccc2s1	inconclusive: 0.0231 µM [rising, full curve]	
COc1cc2cc(C)c3nnc(SCC(=O)Nc4cc(C)on4)n3c2cc1OC		inactive: 17.5%
C=CCn1c(SCCOc2ccc(OC)cc2)nnc1C(NC(=O)c1ccc(OC)cc1)C(C)C (centres undefined)	active: 11.6 µM	
CC12CCC3c4ccc(O)cc4CCC3C1CCC2=O (centres undefined)	inconclusive: 18.4 µM [cytotoxic, single point]	
CCCOc1ccc(Nc2nc(SC)ncc2C(=O)OCC)cc1		inactive: -1.79%
S=C(NCc1ccccc1)Nc1cccc2cnccc12	inconclusive: 5.8 µM [cytotoxic, partial curve]	
O=C(c1coc2ccc(O)c(CN3CCOCC3)c12)C1CC1		inactive: -5.26%
C[C@H](CO)N1C[C@H](C)[C@@H](CN(C)Cc2ccc3c(c2)OCO3)OCc2cnnn2CCCC1=O		inactive: 25.2%
CCc1c(C(C)S(=O)(=O)c2ccc(C)cc2)[nH]c(=O)n1-c1ccc(C)cc1 (centres undefined)		inactive: 12.3%
O=c1[nH]c(Cc2ccc(F)cc2)nc2scc(-c3ccc(F)cc3)c12	inconclusive: 9.2 µM [cytotoxic, partial curve]	
N#CC1=C(SCc2ccccc2)NC(=O)C(C#N)C12CCCC2 (centres undefined)	active: 14.6 µM	
C=CCC1(C#N)C(=S)NC(C)=C(C(=O)OCC)C1c1ccccc1 (centres undefined)	inconclusive: 9.2 µM [cytotoxic, partial curve, poor fit]	
CC(C)c1nc(SCC(=O)c2c[nH]c3ccccc23)n[nH]1	inconclusive: 29.1 µM [rising, single point]	
Cc1ccc(C(=O)C(C)OC(=O)C2CCN(c3ccc(C(F)(F)F)cn3)CC2)cc1C (centres undefined)	inconclusive: 20.6 µM [cytotoxic, single point]	
COc1ccc(-c2nc3nc(C)cc(Nc4ccc(C(C)=O)cc4)n3n2)cc1	inconclusive: 23.1 µM [cytotoxic, single point]	
CCCCn1nnnc1C(c1cc2ccccc2o1)N(C)CCc1ccccc1 (centres undefined)	inconclusive: 11.6 µM [cytotoxic, partial curve]	
COc1cc(-c2nnc(SCC(=O)/C(C#N)=C(\C)N)o2)cc(OC)c1OC	inconclusive: 23.1 µM [cytotoxic, single point]	
N#CC1C(=O)NC(c2ccccc2)=CC1c1ccccc1 (centres undefined)		inactive: 0.481%
Cc1cc(NC(=O)CS(=O)(=O)c2cn(Cc3ccccc3Cl)c3ccccc23)no1	inconclusive: 3.66 µM [cytotoxic, partial curve, poor fit]	
Cc1ccc(C(=O)NCCc2ccc(F)cc2)s1	inconclusive: 23.1 µM [cytotoxic, partial curve, poor fit]	
CCN(CC(=O)NCc1ccc(Cl)cc1)C(=O)CCC(=O)c1ccc(C)cc1	inconclusive: 3.26 µM [cytotoxic, full curve]	

SMILES	Potency	activity change, negative = cytotoxicity
COc1cccc(C(=O)OC(C)C(=O)NCC2CCCCC2)c1 (centres undefined)		inactive: -16.9%
O=C(CCn1c(=O)oc2ccccc21)NCc1ccc2c(c1)OCO2	inconclusive: 23.1 µM [cytotoxic, single point]	
Oc1cccc2ccc(Nc3ccccn3)nc12	inconclusive: 29.1 µM [cytotoxic, single point]	
NCC(=O)NCC(=O)NC[C@H]1O[C@@H](n2cnc3c(N)ncnc32)[C@H](O)[C@@H]1O		inactive: 12.9%
COc1cc2c(cc1OC)CN(S(=O)(=O)c1ccc3c(c1)OCCO3)CC2	active: 5.17 µM	
COc1ccc(CNC(=O)c2cccc3c(-c4cccc(C(N)=O)c4)coc23)cc1OC	inconclusive: 18.4 µM [cytotoxic, single point]	
CC(C)(O)CN(C(=O)c1ccc([N+](=O)[O-])cc1)C1CCCC1	inconclusive: 8.2 µM [cytotoxic, partial curve, poor fit]	
O=C1CCCC2=C1C(c1ccco1)Nc1ccc(C(=O)c3ccccc3)cc1N2 (centres undefined)	inconclusive: 16.4 µM [cytotoxic, single point]	
CCOc1ccc(-c2ccc(NS(=O)(=O)c3cc(C)c(C)cc3C)cc2)nn1		inactive: -10.2%
Cc1ccc2c(c1)cc(CN(Cc1ccc3c(c1)OCO3)C(=O)c1cnccn1)c1nnnn12	inconclusive: 4.61 µM [cytotoxic, partial curve, poor fit]	
CCOc1ccc(CCNC(=O)c2ccc(CS(=O)(=O)Cc3ccccc3Cl)o2)cc1OCC	inconclusive: 18.4 µM [cytotoxic, partial curve]	
Cc1ccccc1CN1CCc2nc(Nc3ccc4c(c3)OCCO4)ncc2C1		inactive: -18.4%
CN(CC(=O)Nc1ccccc1Cl)C(=O)CCSc1ccc(F)cc1		inconclusive: -31.7% [cytotoxic]
Cc1nn(-c2ccccc2)c(C)c1C(=O)OCC(=O)N1CCN(S(=O)(=O)c2ccccc2)CC1	inconclusive: 14.6 µM [cytotoxic, partial curve]	
Cc1ccc(S(=O)(=O)N2CCN(c3ccccc3)CC2)cc1C(N)=O	inconclusive: 18.4 µM [rising, single point]	
c1ccc(C2=NN(c3ccccc3)C(c3ccco3)C2)cc1 (centres undefined)	inconclusive: 29.1 µM [rising, single point]	
COc1ccc(NC(=O)CN2c3cccc4cccc(c34)S2(=O)=O)cc1OC	inconclusive: 29.1 µM [cytotoxic, single point]	
O=C(NOC(=O)c1c(F)cccc1Cl)c1ccc(Cl)c(Cl)c1		inactive: 6.3%
COc1ccc(C=NNC(=O)CCCCC(=O)NN=Cc2ccc(OC)cc2)cc1	inconclusive: 29.1 µM [rising, single point]	
O=C(NCC1CC1)c1ccc2c3n(nc2c1)-c1ccccc1CO3	inconclusive: 14.6 µM [cytotoxic, partial curve, poor fit]	
O=C(Nc1ccc2c(c1)OCCO2)C1c2ccccc2OCC(=O)N1Cc1cccnc1 (centres undefined)	inconclusive: 23.1 µM [rising, partial curve]	
O=C(Nc1nc(-c2ccco2)c(-c2ccco2)s1)c1ccc(F)cc1F		inactive: -27.7%

Ordered by formula weight (rising): part of the list above
SMILES	Potency	activity change, negative = cytotoxicity
O=C(CCn1c(=O)oc2ccccc21)NCc1ccc2c(c1)OCO2	inconclusive: 23.1 µM [cytotoxic, single point]	
Cc1ccccc1CN1CCc2nc(Nc3ccc4c(c3)OCCO4)ncc2C1		inactive: -18.4%
O=C(Nc1ccc2c(c1)OCCO2)C1c2ccccc2OCC(=O)N1Cc1cccnc1 (centres undefined)	inconclusive: 23.1 µM [rising, partial curve]	
